Assay results taken from patent US20260192003A1, “CHELATING COMPOUNDS AND METHODS OF USES THEREOF” (THE REGENTS OF THE UNIVERSITY OF CALIFORNIA, priority 2023, published 2026).

Assay: Concentration-dependent radiolabeling with [^227Th]Th^4+ (iTLC)
Conditions: for ligand concentration at which ^227Th is bound (as low as): within 30 min, room temperature, pH 5

| SMILES | incorporation of [^227Th]Th^4+ (highest tested concentration of 10^−4 M) | ligand concentration at which ^227Th is bound (as low as) |
| --- | --- | --- |
| O=C(O)CN1CCN(CC(=O)O)CCN(CC(=O)O)CCN(CC(=O)O)CC1 [DOTA, 1,4,7,10-tetraazacyclododecane-N,N′,N″,N″-1,4,7,10-tetraacetic acid, reference compound] | partial incorporation |  |
| O=C(c1cccc(=O)n1O)N1CCN(C(=O)c2cccc(=O)n2O)CCN(C(=O)c2cccc(=O)n2O)CCN(C(=O)c2cccc(=O)n2O)CC1 [DOTHOPO] |  | 10^−6 M |
| O=c1cccc(CN2CCN(Cc3cccc(=O)n3O)CCN(Cc3cccc(=O)n3O)CCN(Cc3cccc(=O)n3O)CC2)n1O [MeDOTHOPO, 1,4,7,10-tetraazacyclododecane-1,4,7,10-tetra(methylene)tetrakis(1-hydroxy-2-pyridinone)] |  | 10^−6 M |
